In the supplement of paper PMC11438910:
This is one part of the list. Only a few entries rise above the background.

What was measured:
Experiment in all cases: fluorescence intensity of antibody binding to polysaccharide-coupled beads; higher = stronger binding
[1] = target: pneumococcal polysaccharide Pn2
[2] = target: pneumococcal polysaccharide Pn20A
[3] = target: pneumococcal polysaccharide Pn20B
[4] = target: pneumococcal polysaccharide Pn21
[5] = target: pneumococcal polysaccharide Pn22A
[6] = target: pneumococcal polysaccharide Pn22F
[7] = target: pneumococcal polysaccharide Pn23A
[8] = target: pneumococcal polysaccharide Pn23B
[9] = target: pneumococcal polysaccharide Pn23F
[10] = target: pneumococcal polysaccharide Pn24A
[11] = target: pneumococcal polysaccharide Pn24B
[12] = target: pneumococcal polysaccharide Pn24F
[13] = target: pneumococcal polysaccharide Pn25A
[14] = target: pneumococcal polysaccharide Pn25F
[15] = target: pneumococcal polysaccharide Pn27
[16] = target: pneumococcal polysaccharide Pn28A
[17] = target: pneumococcal polysaccharide Pn28F
[18] = target: pneumococcal polysaccharide Pn29
[19] = target: pneumococcal polysaccharide Pn3
[20] = target: pneumococcal polysaccharide Pn31
[21] = target: pneumococcal polysaccharide Pn32A
[22] = target: pneumococcal polysaccharide Pn32F
[23] = target: pneumococcal polysaccharide Pn33A
[24] = target: pneumococcal polysaccharide Pn33B
[25] = antibody concentration 2337.65 ng/mL
[26] = antibody concentration 12500 ng/mL
[27] = antibody concentration 0.1 ng/mL
[28] = antibody concentration 0.534724 ng/mL
[29] = antibody concentration 2.8593 ng/mL
[30] = antibody concentration 15.2894 ng/mL
[31] = antibody concentration 81.7561 ng/mL
[32] = antibody concentration 437.17 ng/mL

B1: 4-99.2 (protein)
chain 1: QVQLQESGPGLVKPSETLSLTCAVSGYSIRSAYEWGWIRQPPGKGLEYIGYISGESGNTYYSPSLKSRVTISRDTSKNQFSLRLSSVTAADSAVYYCARRGQLIGFDFWGQGVLVTVSS
chain 2: QAAPTQPPSVSGSPGQSVTISCTGTSSDIGYYNAVSWYQHLPGKAPKLMIYEVSKRPSGVSDRFSGSKSGNTASLTISGLQAEDEADYYCSSYAGSNTYIFGAGTRLTVL
fluorescence intensity [1, 25]: 20 MFI | fluorescence intensity [1, 26]: 25.5 MFI | fluorescence intensity [2, 27]: 23.5 MFI | fluorescence intensity [2, 28]: 22 MFI | fluorescence intensity [2, 29]: 22.8 MFI | fluorescence intensity [2, 30]: 23.5 MFI | fluorescence intensity [2, 31]: 24 MFI | fluorescence intensity [2, 32]: 22.5 MFI | fluorescence intensity [2, 25]: 29 MFI | fluorescence intensity [2, 26]: 54 MFI | fluorescence intensity [3, 27]: 24 MFI | fluorescence intensity [3, 28]: 25.5 MFI | fluorescence intensity [3, 29]: 23 MFI | fluorescence intensity [3, 30]: 23.2 MFI | fluorescence intensity [3, 31]: 23 MFI | fluorescence intensity [3, 32]: 25.5 MFI | fluorescence intensity [3, 25]: 24.5 MFI | fluorescence intensity [3, 26]: 30.5 MFI | fluorescence intensity [4, 27]: 19.2 MFI | fluorescence intensity [4, 28]: 19.5 MFI | fluorescence intensity [4, 29]: 18.2 MFI | fluorescence intensity [4, 30]: 18.8 MFI | fluorescence intensity [4, 31]: 18.5 MFI | fluorescence intensity [4, 32]: 18 MFI | fluorescence intensity [4, 25]: 18.8 MFI | fluorescence intensity [4, 26]: 21 MFI | fluorescence intensity [5, 27]: 20 MFI | fluorescence intensity [5, 28]: 20.8 MFI | fluorescence intensity [5, 29]: 19.5 MFI | fluorescence intensity [5, 30]: 22.2 MFI | fluorescence intensity [5, 31]: 23 MFI | fluorescence intensity [5, 32]: 23.5 MFI | fluorescence intensity [5, 25]: 22 MFI | fluorescence intensity [5, 26]: 34.5 MFI | fluorescence intensity [6, 27]: 30.5 MFI | fluorescence intensity [6, 28]: 27.8 MFI | fluorescence intensity [6, 29]: 32 MFI | fluorescence intensity [6, 30]: 30.5 MFI | fluorescence intensity [6, 31]: 30 MFI | fluorescence intensity [6, 32]: 31.5 MFI | fluorescence intensity [6, 25]: 32.8 MFI | fluorescence intensity [6, 26]: 33.8 MFI | fluorescence intensity [7, 27]: 22.5 MFI | fluorescence intensity [7, 28]: 25.2 MFI | fluorescence intensity [7, 29]: 22.5 MFI | fluorescence intensity [7, 30]: 22.8 MFI | fluorescence intensity [7, 31]: 21.5 MFI | fluorescence intensity [7, 32]: 26.2 MFI | fluorescence intensity [7, 25]: 30.2 MFI | fluorescence intensity [7, 26]: 49 MFI | fluorescence intensity [8, 27]: 28.8 MFI | fluorescence intensity [8, 28]: 29.5 MFI | fluorescence intensity [8, 29]: 29.5 MFI | fluorescence intensity [8, 30]: 27.5 MFI | fluorescence intensity [8, 31]: 30.5 MFI | fluorescence intensity [8, 32]: 29.5 MFI | fluorescence intensity [8, 25]: 33 MFI | fluorescence intensity [8, 26]: 35 MFI | fluorescence intensity [9, 27]: 16.5 MFI | fluorescence intensity [9, 28]: 18 MFI | fluorescence intensity [9, 29]: 17.5 MFI | fluorescence intensity [9, 30]: 17 MFI | fluorescence intensity [9, 31]: 16.5 MFI | fluorescence intensity [9, 32]: 19.5 MFI | fluorescence intensity [9, 25]: 18 MFI | fluorescence intensity [9, 26]: 26.5 MFI | fluorescence intensity [10, 27]: 15 MFI | fluorescence intensity [10, 28]: 16.8 MFI | fluorescence intensity [10, 29]: 15 MFI | fluorescence intensity [10, 30]: 14.8 MFI | fluorescence intensity [10, 31]: 13.5 MFI | fluorescence intensity [10, 32]: 15.2 MFI | fluorescence intensity [10, 25]: 17 MFI | fluorescence intensity [10, 26]: 20.2 MFI | fluorescence intensity [11, 27]: 16.5 MFI | fluorescence intensity [11, 28]: 18.2 MFI | fluorescence intensity [11, 29]: 17 MFI | fluorescence intensity [11, 30]: 18.5 MFI | fluorescence intensity [11, 31]: 17.5 MFI | fluorescence intensity [11, 32]: 18.5 MFI | fluorescence intensity [11, 25]: 20 MFI | fluorescence intensity [11, 26]: 31.5 MFI | fluorescence intensity [12, 27]: 16 MFI | fluorescence intensity [12, 28]: 19 MFI | fluorescence intensity [12, 29]: 15.5 MFI | fluorescence intensity [12, 30]: 16 MFI | fluorescence intensity [12, 31]: 17 MFI | fluorescence intensity [12, 32]: 19.2 MFI | fluorescence intensity [12, 25]: 19.5 MFI | fluorescence intensity [12, 26]: 32.2 MFI | fluorescence intensity [13, 27]: 22.8 MFI | fluorescence intensity [13, 28]: 21.5 MFI | fluorescence intensity [13, 29]: 24 MFI | fluorescence intensity [13, 30]: 22 MFI | fluorescence intensity [13, 31]: 22 MFI | fluorescence intensity [13, 32]: 24.5 MFI | fluorescence intensity [13, 25]: 24.5 MFI | fluorescence intensity [13, 26]: 31 MFI | fluorescence intensity [14, 27]: 29 MFI | fluorescence intensity [14, 28]: 29.5 MFI | fluorescence intensity [14, 29]: 30.5 MFI | fluorescence intensity [14, 30]: 30 MFI | fluorescence intensity [14, 31]: 28 MFI | fluorescence intensity [14, 32]: 28.5 MFI | fluorescence intensity [14, 25]: 29.5 MFI | fluorescence intensity [14, 26]: 37 MFI | fluorescence intensity [15, 27]: 16 MFI | fluorescence intensity [15, 28]: 15.5 MFI | fluorescence intensity [15, 29]: 17 MFI | fluorescence intensity [15, 30]: 16.5 MFI | fluorescence intensity [15, 31]: 15.5 MFI | fluorescence intensity [15, 32]: 17.5 MFI | fluorescence intensity [15, 25]: 20.5 MFI | fluorescence intensity [15, 26]: 54.5 MFI | fluorescence intensity [16, 27]: 24.5 MFI | fluorescence intensity [16, 28]: 24.5 MFI | fluorescence intensity [16, 29]: 25 MFI | fluorescence intensity [16, 30]: 27 MFI | fluorescence intensity [16, 31]: 25.2 MFI | fluorescence intensity [16, 32]: 26.5 MFI | fluorescence intensity [16, 25]: 26.2 MFI | fluorescence intensity [16, 26]: 31.5 MFI | fluorescence intensity [17, 27]: 28.5 MFI | fluorescence intensity [17, 28]: 28 MFI | fluorescence intensity [17, 29]: 29.5 MFI | fluorescence intensity [17, 30]: 29 MFI | fluorescence intensity [17, 31]: 28 MFI | fluorescence intensity [17, 32]: 28 MFI | fluorescence intensity [17, 25]: 30 MFI | fluorescence intensity [17, 26]: 41.5 MFI | fluorescence intensity [18, 27]: 14.5 MFI | fluorescence intensity [18, 28]: 15.5 MFI | fluorescence intensity [18, 29]: 16 MFI | fluorescence intensity [18, 30]: 15.2 MFI | fluorescence intensity [18, 31]: 16.5 MFI | fluorescence intensity [18, 32]: 14 MFI | fluorescence intensity [18, 25]: 20 MFI | fluorescence intensity [18, 26]: 36.8 MFI | fluorescence intensity [19, 27]: 18.8 MFI | fluorescence intensity [19, 28]: 35.5 MFI | fluorescence intensity [19, 29]: 79.8 MFI | fluorescence intensity [19, 30]: 246 MFI | fluorescence intensity [19, 31]: 915 MFI | fluorescence intensity [19, 32]: 3140 MFI | fluorescence intensity [19, 25]: 17200 MFI | fluorescence intensity [19, 26]: 8310 MFI | fluorescence intensity [20, 27]: 13 MFI | fluorescence intensity [20, 28]: 13.5 MFI | fluorescence intensity [20, 29]: 13.8 MFI | fluorescence intensity [20, 30]: 13.5 MFI | fluorescence intensity [20, 31]: 13 MFI | fluorescence intensity [20, 32]: 13.5 MFI | fluorescence intensity [20, 25]: 16 MFI | fluorescence intensity [20, 26]: 35.2 MFI | fluorescence intensity [21, 27]: 16.5 MFI | fluorescence intensity [21, 28]: 17.5 MFI | fluorescence intensity [21, 29]: 17.5 MFI | fluorescence intensity [21, 30]: 17 MFI | fluorescence intensity [21, 31]: 15.5 MFI | fluorescence intensity [21, 32]: 18.8 MFI | fluorescence intensity [21, 25]: 19.2 MFI | fluorescence intensity [21, 26]: 31 MFI | fluorescence intensity [22, 27]: 24.5 MFI | fluorescence intensity [22, 28]: 25.5 MFI | fluorescence intensity [22, 29]: 26 MFI | fluorescence intensity [22, 30]: 25 MFI | fluorescence intensity [22, 31]: 25.5 MFI | fluorescence intensity [22, 32]: 26.5 MFI | fluorescence intensity [22, 25]: 31.5 MFI | fluorescence intensity [22, 26]: 46 MFI | fluorescence intensity [23, 27]: 17 MFI | fluorescence intensity [23, 28]: 17.5 MFI | fluorescence intensity [23, 29]: 17.5 MFI | fluorescence intensity [23, 30]: 18 MFI | fluorescence intensity [23, 31]: 19.5 MFI | fluorescence intensity [23, 32]: 20 MFI | fluorescence intensity [23, 25]: 27.5 MFI | fluorescence intensity [23, 26]: 120 MFI | fluorescence intensity [24, 27]: 17.5 MFI | fluorescence intensity [24, 28]: 16.5 MFI
